One assay concerns the target T1, V5-tagged Ufl1 (UniProt Q8CCJ3).
T1 sequence: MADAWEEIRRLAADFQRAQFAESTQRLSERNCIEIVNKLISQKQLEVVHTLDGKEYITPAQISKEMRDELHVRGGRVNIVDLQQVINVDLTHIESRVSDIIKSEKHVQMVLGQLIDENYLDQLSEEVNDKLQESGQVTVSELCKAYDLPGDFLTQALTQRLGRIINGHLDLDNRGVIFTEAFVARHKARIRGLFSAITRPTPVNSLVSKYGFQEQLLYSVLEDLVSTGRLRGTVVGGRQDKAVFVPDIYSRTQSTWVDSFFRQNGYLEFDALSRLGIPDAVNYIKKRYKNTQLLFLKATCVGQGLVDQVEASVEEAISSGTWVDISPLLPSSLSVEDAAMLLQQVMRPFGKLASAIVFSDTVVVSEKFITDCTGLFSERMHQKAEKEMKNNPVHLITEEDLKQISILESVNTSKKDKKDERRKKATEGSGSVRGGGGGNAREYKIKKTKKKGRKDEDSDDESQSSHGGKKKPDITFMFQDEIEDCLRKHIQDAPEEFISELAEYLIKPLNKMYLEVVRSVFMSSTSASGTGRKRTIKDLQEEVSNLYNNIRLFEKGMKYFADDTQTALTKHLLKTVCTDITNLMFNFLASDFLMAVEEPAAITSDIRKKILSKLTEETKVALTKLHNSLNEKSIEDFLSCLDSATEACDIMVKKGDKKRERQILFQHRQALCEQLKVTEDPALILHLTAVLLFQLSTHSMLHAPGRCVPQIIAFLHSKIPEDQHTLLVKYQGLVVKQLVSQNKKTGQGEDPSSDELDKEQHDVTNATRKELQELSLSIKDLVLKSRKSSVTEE
Description: co-IP; HEK293T cells co-transfected with Flag-tagged NLRP3 and V5-tagged Ufl1; 0.3% NP-40 lysis buffer; IP with Flag beads or with V5 antibody.

Sequences of proteins named here, by UniProt entry; tags and fusion partners are left off.
UniProt O94874: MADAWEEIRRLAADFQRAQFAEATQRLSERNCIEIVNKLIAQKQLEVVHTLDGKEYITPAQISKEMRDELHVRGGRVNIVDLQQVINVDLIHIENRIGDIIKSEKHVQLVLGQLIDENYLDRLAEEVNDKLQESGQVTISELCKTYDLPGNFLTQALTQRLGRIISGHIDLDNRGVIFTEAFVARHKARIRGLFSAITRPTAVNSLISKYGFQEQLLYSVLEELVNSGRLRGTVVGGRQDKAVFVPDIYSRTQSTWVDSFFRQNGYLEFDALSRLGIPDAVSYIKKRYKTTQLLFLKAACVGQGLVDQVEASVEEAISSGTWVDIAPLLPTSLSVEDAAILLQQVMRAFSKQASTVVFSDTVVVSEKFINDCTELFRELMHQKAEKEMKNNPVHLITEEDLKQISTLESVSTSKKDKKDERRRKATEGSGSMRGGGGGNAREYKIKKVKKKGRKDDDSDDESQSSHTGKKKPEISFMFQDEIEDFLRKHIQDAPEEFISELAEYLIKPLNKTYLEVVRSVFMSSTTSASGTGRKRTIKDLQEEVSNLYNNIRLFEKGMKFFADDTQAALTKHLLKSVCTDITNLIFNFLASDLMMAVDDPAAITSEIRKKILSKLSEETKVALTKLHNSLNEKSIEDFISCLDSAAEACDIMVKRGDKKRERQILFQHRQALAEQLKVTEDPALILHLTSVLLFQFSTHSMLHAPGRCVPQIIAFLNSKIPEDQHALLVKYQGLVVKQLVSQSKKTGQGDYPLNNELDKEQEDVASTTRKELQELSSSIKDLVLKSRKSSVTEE
UniProt Q8R4B8: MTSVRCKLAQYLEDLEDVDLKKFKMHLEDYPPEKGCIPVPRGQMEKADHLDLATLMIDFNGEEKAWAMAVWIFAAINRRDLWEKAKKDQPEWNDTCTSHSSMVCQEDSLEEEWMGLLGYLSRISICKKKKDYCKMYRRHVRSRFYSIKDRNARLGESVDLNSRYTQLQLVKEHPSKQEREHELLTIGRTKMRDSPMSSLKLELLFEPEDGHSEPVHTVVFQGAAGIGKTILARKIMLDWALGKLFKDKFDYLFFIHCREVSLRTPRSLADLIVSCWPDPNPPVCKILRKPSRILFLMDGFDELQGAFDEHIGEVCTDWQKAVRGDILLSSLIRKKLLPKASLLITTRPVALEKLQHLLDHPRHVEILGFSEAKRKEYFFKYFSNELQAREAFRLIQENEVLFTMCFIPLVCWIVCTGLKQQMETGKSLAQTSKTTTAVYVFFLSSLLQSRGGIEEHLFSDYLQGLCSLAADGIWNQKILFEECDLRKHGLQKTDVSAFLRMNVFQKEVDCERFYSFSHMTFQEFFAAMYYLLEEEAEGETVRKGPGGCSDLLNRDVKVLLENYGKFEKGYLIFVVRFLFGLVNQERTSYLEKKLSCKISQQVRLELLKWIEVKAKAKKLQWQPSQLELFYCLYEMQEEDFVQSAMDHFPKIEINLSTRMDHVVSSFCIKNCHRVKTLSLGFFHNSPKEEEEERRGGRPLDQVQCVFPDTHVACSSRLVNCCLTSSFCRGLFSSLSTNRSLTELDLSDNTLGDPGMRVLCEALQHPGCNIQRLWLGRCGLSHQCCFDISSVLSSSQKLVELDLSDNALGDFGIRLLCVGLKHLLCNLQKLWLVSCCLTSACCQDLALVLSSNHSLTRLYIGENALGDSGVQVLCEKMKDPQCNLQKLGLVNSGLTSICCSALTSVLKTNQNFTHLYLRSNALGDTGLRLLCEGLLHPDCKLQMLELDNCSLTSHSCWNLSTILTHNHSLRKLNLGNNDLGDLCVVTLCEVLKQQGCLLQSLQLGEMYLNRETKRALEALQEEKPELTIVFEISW
UniProt Q96P20: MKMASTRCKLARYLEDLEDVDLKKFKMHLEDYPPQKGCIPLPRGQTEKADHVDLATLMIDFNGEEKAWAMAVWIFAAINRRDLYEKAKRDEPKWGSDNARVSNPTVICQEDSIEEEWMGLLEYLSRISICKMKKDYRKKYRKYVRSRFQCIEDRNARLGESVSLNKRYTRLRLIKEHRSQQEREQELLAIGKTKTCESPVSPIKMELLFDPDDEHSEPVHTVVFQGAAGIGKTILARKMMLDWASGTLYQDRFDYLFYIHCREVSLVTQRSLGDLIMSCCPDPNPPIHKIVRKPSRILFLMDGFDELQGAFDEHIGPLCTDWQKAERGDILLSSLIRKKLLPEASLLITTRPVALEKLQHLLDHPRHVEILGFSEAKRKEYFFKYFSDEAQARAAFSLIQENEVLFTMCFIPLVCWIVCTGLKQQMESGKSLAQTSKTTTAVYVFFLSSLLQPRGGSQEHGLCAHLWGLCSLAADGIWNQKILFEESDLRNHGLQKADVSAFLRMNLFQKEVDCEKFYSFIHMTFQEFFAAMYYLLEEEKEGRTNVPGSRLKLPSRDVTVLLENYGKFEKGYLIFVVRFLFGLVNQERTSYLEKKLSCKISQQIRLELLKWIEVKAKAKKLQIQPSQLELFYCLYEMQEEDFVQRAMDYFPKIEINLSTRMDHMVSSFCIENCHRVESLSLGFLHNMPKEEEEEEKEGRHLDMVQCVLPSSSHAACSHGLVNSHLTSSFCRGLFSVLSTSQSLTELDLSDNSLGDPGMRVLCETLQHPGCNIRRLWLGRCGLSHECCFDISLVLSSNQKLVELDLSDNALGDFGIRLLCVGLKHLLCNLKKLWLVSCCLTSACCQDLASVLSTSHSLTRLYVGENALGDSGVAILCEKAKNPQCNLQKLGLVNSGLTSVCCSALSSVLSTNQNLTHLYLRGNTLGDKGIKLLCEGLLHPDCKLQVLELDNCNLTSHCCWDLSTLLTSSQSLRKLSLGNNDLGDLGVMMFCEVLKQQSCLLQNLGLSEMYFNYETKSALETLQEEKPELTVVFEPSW

A further assay concerns the target T2, GST-tagged Ufl1 (UniProt Q8CCJ3).
T2 sequence: T1 sequence
In words: pull-down; GST or GST-tagged Ufl1 on Glutathione Sepharose beads incubated overnight at 4 °C with cell lysates (150 mM NaCl, 50 mM Tris-HCl pH 7.4, 1% Triton X-100, 1 mM EDTA); blot with anti-Flag or anti-NLRP3; only the target purified.

Assay [1] addresses Ufl1 (endogenous, THP-1-derived macrophages) (human (endogenous in THP-1)) (UniProt O94874). Description: co-IP; endogenous proteins in THP-1-derived macrophages, resting, LPS-stimulated (1 µg/mL, 3 h) or LPS-primed and ATP-activated (2 mM, 30 min); 0.3% NP-40 lysis buffer; IP with Ufl1 antibody overnight at 4 °C.

No constants are given. Whether binding was seen depends on the method and setting. In cells and extracts the contact can be indirect. Some binding calls cover weakened binding; strength is not graded here. For some of these results: Where a sequence is shown, tags or fusion partners need not be part of it.

Consider “Flag-tagged NLRP3 (from UniProt Q8R4B8 1-1033)”, for which the binding entry with V5-tagged Ufl1 and with GST-tagged Ufl1 was “binds” each time.

As to “NLRP3 (endogenous, LPS-stimulated mouse peritoneal macrophages) (from UniProt Q8R4B8 1-1033)”, in the assay with GST-tagged Ufl1, the binding result is given as “binds”.

For “NLRP3 (endogenous, THP-1-derived macrophages) (from UniProt Q96P20 1-1036)”, in assay [1], the binding result is “binds”.

For the origin of these results see PMC12005806.
